# Reference: PubChem BioAssay AID624297 (National Center for Advancing Translational Sciences (NCATS), 2012)
# The campaign covered roughly 340,000 compounds. About 6,200 (1.8%) were called active. Inconclusive means that the source gave no clear call. Such entries were picked first, then a sample of the others. The call rests on the fitted dose curve; in most records, active means well fitted activation curve with a large enough effect; inconclusive means small, poorly fitted or top-dose-only effect; inactive means no such curve, though single readings can be large or run the other way. A potency beside an inconclusive call is a rough fit, not a confirmed value.
# Assay: A quantitative high throughput screen for small molecules that induce DNA re-replication in SW480 colon adenocarcinoma cells. Further: nearly all actives have a fitted effect of over 55% in size. On re-replication activation: % of control where 0% means no effect.
# Details: Hoechst DNA content imaging, 48 h; re-replication activation: at 46.1 µM (top of the series) unless noted
# Summary of the method: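 First, 250 cells per well were seeded. Next, compound or vehicle (23 nL) was pinned in, plates sat 48 hr at 37 C. Finally Hoechst was added for 40 min before fluorescence scanning.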
# Potency means the concentration at half of the fitted maximal effect.
Compound,Potency,re-replication activation
C=C(C)CSc1nc2ccccc2[nH]1,"inconclusive: 29.1 µM [activator, partial curve, poor fit]",
O=C(Nc1ccc(Cl)c(S(=O)(=O)N2CCCCC2)c1)c1ccncc1,,inactive: 2.1%
CCOC(=O)C(Cc1c[nH]c2ccccc12)NC(=O)c1ccccc1Br (configuration not stated),,inactive: -11.4% [at 9.22 µM]
Cc1ccc(C)c(C2=NNC(=NCc3ccccc3)SC2)c1,"inconclusive: 16.4 µM [activator, single point]",
OCCN1CCN(C2Cc3cc(Cl)ccc3Sc3ccc(Cl)cc32)CC1 (configuration not stated) (tested in a mixture with another compound),"inconclusive: 20.6 µM [activator, partial curve, poor fit]",
COc1ccc(-n2c(=S)[nH]c3sc(-c4ccccc4)cc3c2=O)c(OC)c1,,inactive: 2.47%
COc1ccc(/C=C/C(=O)OCC(=O)NC(C)CCc2ccccc2)cc1OC (configuration not stated),,inactive: -4.23%
COc1cccc2c(C)cc(N3CCCCCC3)nc12,,inactive: -6.97%
Cc1ccccc1N1CCN(C2CCCN(C(=O)c3ccnn3C)C2)CC1 (configuration not stated),,inactive: -2.33%
Cc1ccc(S(=O)(=O)N2CCN(C(=O)c3ccc(N4CCCC4)c([N+](=O)[O-])c3)CC2)cc1,"inconclusive: 29.1 µM [activator, single point]",
COc1cccc(-c2cc(C(=O)Nc3cc(C)n(Cc4ccc(Cl)cc4)n3)no2)c1,"inconclusive: 16.4 µM [activator, single point]",
COc1ccc(Br)cc1C(=O)N/N=C/c1ccc([N+](=O)[O-])cc1,"inconclusive: 18.4 µM [activator, single point]",
COc1ccc(-c2cc(-c3ccccc3)c(C#N)c(S(C)=O)n2)cc1 (configuration not stated),"inconclusive: 20.6 µM [activator, single point]",
O=C(NCc1n[nH]c(=S)n1-c1ccc(Cl)c(Cl)c1)c1ccc(S(=O)(=O)N2CCOCC2)cc1,"inconclusive: 29.1 µM [activator, single point]",
COc1ccc(S(=O)(=O)N2CCCCC2)cc1NC(=O)c1ccco1,,inactive: -0.618%
CC1=CC(C)(C)N=C(Nc2ccc(C)cc2)S1,"inconclusive: 29.1 µM [activator, partial curve, poor fit]",
CC(C)(C)N1C(=O)c2ccc(C(=O)Nc3ccc(O)cc3)cc2C1=O,"inconclusive: 32.6 µM [activator, partial curve, poor fit]",
CN(C)S(=O)(=O)c1ccc(NC(=O)c2ccc([N+](=O)[O-])cc2)cc1,"inconclusive: 9.2 µM [activator, single point]",
Cc1cc(-c2ccc(C)c(S(=O)(=O)NCC3CCN(Cc4ccccc4F)CC3)c2)on1,"inconclusive: 29.1 µM [activator, single point]",
O=C(NC1CCCCC1)C(c1ccc(F)cc1)N(Cc1ccco1)C(=O)c1ccccn1 (configuration not stated),"inconclusive: 29.1 µM [activator, single point]",
CC(C)CNc1nc(N)c([N+](=O)[O-])c(N2CCCCCC2)n1,,inactive: 16.3%
CC[C@]12c3[nH]c4ccc(OC)cc4c3CCN1C(=O)C(CC(=O)NCc1ccco1)C[C@@H]2C(=O)N1CCN(C(=O)C2CC2)CC1 (some centres not stated),"inconclusive: 29.1 µM [activator, single point]",
COc1ccc(C(=O)N=C2SC3CS(=O)(=O)CC3N2c2ccc(C(C)=O)cc2)cc1 (configuration not stated),"inconclusive: 1.46 µM [activator, partial curve]",

# Sorted by formula weight (falling): some entries from above
Compound,Potency,re-replication activation
O=C(NC1CCCCC1)C(c1ccc(F)cc1)N(Cc1ccco1)C(=O)c1ccccn1 (configuration not stated),"inconclusive: 29.1 µM [activator, single point]",
COc1ccc(Br)cc1C(=O)N/N=C/c1ccc([N+](=O)[O-])cc1,"inconclusive: 18.4 µM [activator, single point]",
COc1cccc2c(C)cc(N3CCCCCC3)nc12,,inactive: -6.97%

# Remaining list, next part.

Compound,Potency,re-replication activation
COC(=O)C1=C(C)N(Cc2ccccc2)C(=NCc2cccc(Cl)c2)N[C@H]1c1cccc(F)c1,"inconclusive: 6.51 µM [activator, single point]",
COc1ccccc1N1CCN(C(=O)C(=O)c2cn(CC(=O)N3CCOCC3)c3ccccc23)CC1,"inconclusive: 18.4 µM [activator, single point]",
CC(=O)c1ccc(N2CCN(C(=O)c3cc4c(C)nc5ccccc5c4o3)CC2)cc1,"inconclusive: 29.1 µM [activator, single point]",
Fc1ccc(NC(=S)NCCc2ccc(Cl)cc2)cc1,"inconclusive: 29.1 µM [activator, single point]",
N#Cc1ncc(-c2ccc3c(c2)OCCOCCOCCOCCO3)nc1C#N,"inconclusive: 20.6 µM [activator, single point]",
O=C(Nc1ccccc1N1CCN(C(=O)c2ccccc2)CC1)c1ccc(Br)o1,"inconclusive: 0.103 µM [activator, full curve, poor fit]",
C/C(=N\NC(=O)c1ccc(C)cc1)c1c(C)[nH]n(-c2ccccc2)c1=O,"inconclusive: 18.4 µM [activator, single point]",
S=c1[nH]nc(-c2ccco2)n1/N=C/c1c(Cl)cccc1Cl,,inactive: -11%
Cc1nc(C(=O)NNC(=O)c2cccc(Cl)c2)c(C(F)(F)F)o1,"inconclusive: 29.1 µM [activator, single point]",
COC(=O)c1c(-c2ccc3ccccc3c2)csc1NC(=O)Cc1ccc(OC)c(OC)c1,"inconclusive: 29.1 µM [activator, single point]",
CC(C)n1c(NCc2c[nH]c3ccccc23)nc2ccccc21,"inconclusive: 25.9 µM [activator, partial curve, poor fit]",
CCOC(=O)C1=C(C)N(CCC(=O)O)C(=O)NC1c1ccccc1Cl (configuration not stated),,inactive: -3.95%
CCN(CC)CCOC(=O)c1ccc(NC(=O)CCCN2C(=O)/C(=C\c3cccs3)SC2=S)cc1,"inconclusive: 29.1 µM [activator, single point]",
C[C@@]12C(=O)Nc3cc(Cl)ccc3C(=O)N1[C@H]1c3ccccc3OC[C@@H]1[C@@H]2c1ccccc1,"inconclusive: 1.64 µM [activator, partial curve, poor fit]",
O=C(Nc1cccc2ccccc12)c1cccc([N+](=O)[O-])c1,,inconclusive: 45.1% [activator]
COc1cc(C)c(Br)cc1S(=O)(=O)NCCCN1CCOCC1,,inactive: -19.1%
CC(C)(C)C(=O)Nc1cc(S(=O)(=O)N2CCCCC2)ccc1N1CCCCC1,"inconclusive: 23.1 µM [activator, single point]",
CCC(=O)Oc1ccc2c(C)c(Cl)c(=O)oc2c1,"inconclusive: 23.1 µM [activator, single point]",
Cc1nn2c(N3CCN(c4ccccn4)CC3)cc(C(C)C)nc2c1-c1ccccc1,"inconclusive: 18.4 µM [activator, partial curve, poor fit]",
Cc1ccc(NC(=O)C2CCCN2C(=O)OCc2ccccc2)cc1F (configuration not stated),,inactive: 1.96%
O=C(c1cc2cc(Cl)ccc2[nH]1)N1CCN(Cc2ccc3c(c2)OCO3)CC1,,inconclusive: -41.3% [activator]
O=C(CN(C(=O)c1csnn1)c1cccc2ccccc12)NCc1ccc(F)cc1,"inconclusive: 15.8 µM [activator, single point]",
COc1cccc(C(=O)/C=C/Nc2ccc(S(=O)(=O)Nc3cccc(C(C)=O)c3)cc2)c1,active: 20.6 µM,

Compound,Potency,re-replication activation
O=C(Cc1ccsc1)Nc1ccccc1F,,inactive: -3.89%
O=C(CNC(=O)c1cccs1)c1ccc(F)cc1,"inconclusive: 25.9 µM [activator, single point]",
O=C1CCCN1CCCNc1nc2c(S(=O)(=O)c3ccccc3)nnn2c2ccc(Cl)cc12,"inconclusive: 0.0366 µM [activator, full curve, poor fit]",
C=CCSc1nc2sc3c(c2c(=O)[nH]1)CC(C)(CC)OC3 (configuration not stated),"inconclusive: 18.4 µM [activator, single point]",
COc1ccc(NC(=O)CSc2nc(=O)n(CCN(C)C)c3c2CCCC3)cc1OC,"inconclusive: 29.1 µM [activator, single point]",
CC1(C)Cc2nc3oc4c(N(CCO)Cc5ccccc5)ncnc4c3cc2CO1,,inactive: -7.89%
COc1ccc2c(c1)C(=NNC(=O)c1ccccn1)c1cc(OC)ccc1-2,,inactive: -0.83%
COc1ccc(C(=O)C2CCCN(Cc3cc(C)c(O)c(C)c3)C2)c(OC)c1 (configuration not stated),,inactive: 0.331% [at 9.22 µM]
Cc1cc(NC(=O)CSC2=Nc3ccccc3C3=NC(Cc4ccccc4)C(=O)N23)n[nH]1 (configuration not stated),,inactive: -19.7%
Cc1ccccc1NC(=S)N(CCCN1CCC(C)CC1)Cc1ccco1,,inactive: 3.58%
COC1C/C(=N\O)C2OC(c3ccccc3)OCC2O1 (configuration not stated),"inconclusive: 6.51 µM [activator, single point]",
COc1ccccc1-c1nnc(NC(=O)c2ccc(S(=O)(=O)N3CCOCC3)cc2)o1,"inconclusive: 18.4 µM [activator, single point]",
C=CCn1c(=O)c(C(=O)NCCc2ccc(Cl)cc2)c(O)c2cc(OC)c(OC)cc21,,inactive: -1.7%
COc1ccc(C2=NN(CC(=O)NCc3ccco3)C(=O)CC2)cc1,,inactive: -9.94%
N#Cc1c(NC(=O)C2CCCO2)sc2c1CCCCCC2 (configuration not stated),"inconclusive: 20.6 µM [activator, single point]",
CSc1nncc(=O)[nH]1,"inconclusive: 29.1 µM [activator, single point]",
CC(=O)NC(C(=O)c1ccccc1)C(=O)c1ccccc1,active: 0.517 µM,
COc1ccc2sc(-c3ccc(N(C)C)cc3)c(C#CC(C)(C)O)c2c1,active: 2.06 µM,
COc1cc(/C=C2/SC(=S)N(CC(=O)NC(C)(C)C)C2=O)cc(OC)c1OC,"inconclusive: 0.411 µM [activator, partial curve, poor fit]",
N#Cc1ccc(C(=O)Nc2cc(S(=O)(=O)Nc3ccc(Cl)cc3)ccc2N2CCCCC2)cc1,,inactive: 0.271%
COc1ccc(/C=N/NC(=O)c2cc(-c3ccccc3OC)nc3ccccc23)cc1COC(C)=O,,inactive: 1% [at 9.22 µM]
